Laboratory results: PubChem BioAssay AID1671190 (National Center for Advancing Translational Sciences (NCATS), 2021)
In all, about 580,000 compounds went through this assay and about 6,100 (1.1%) were called active. Inconclusive results, whose numbers are uncertain, are shown with a selection of clear calls. Calls follow the shape of the dose curve; as a rule, active = well fitted inhibition curve with a large enough effect; inconclusive = small, poorly fitted or top-dose-only effect, or another doubt; inactive = no such curve, though single readings can be large or run the other way. Where the call is inconclusive, the potency comes from a doubtful curve fit.

Protein sequences, listed by entry. Tags and fused reporters are not part of them. Lines headed by an entry give the natural chain unless they say otherwise; changes in a name come on top.
UniProt P18054: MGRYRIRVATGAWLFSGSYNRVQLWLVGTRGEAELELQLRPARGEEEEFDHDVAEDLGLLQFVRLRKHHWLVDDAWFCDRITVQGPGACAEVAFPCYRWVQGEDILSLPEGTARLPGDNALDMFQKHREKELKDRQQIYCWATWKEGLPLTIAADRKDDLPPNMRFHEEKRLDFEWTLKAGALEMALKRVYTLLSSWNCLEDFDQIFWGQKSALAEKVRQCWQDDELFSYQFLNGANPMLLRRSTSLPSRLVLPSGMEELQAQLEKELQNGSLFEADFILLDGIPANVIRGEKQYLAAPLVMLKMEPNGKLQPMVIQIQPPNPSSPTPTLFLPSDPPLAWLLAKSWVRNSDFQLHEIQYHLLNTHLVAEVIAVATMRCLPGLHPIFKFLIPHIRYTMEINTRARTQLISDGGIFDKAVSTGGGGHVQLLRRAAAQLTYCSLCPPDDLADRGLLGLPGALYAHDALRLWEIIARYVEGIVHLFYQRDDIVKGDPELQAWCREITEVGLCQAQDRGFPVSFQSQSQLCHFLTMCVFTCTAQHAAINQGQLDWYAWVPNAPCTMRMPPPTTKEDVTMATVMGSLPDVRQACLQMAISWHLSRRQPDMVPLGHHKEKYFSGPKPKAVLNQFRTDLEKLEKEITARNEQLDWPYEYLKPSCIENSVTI

target: Polyunsaturated fatty acid lipoxygenase ALOX12 (Homo sapiens) (UniProt P18054); test: Primary qHTS assay for inhibitors of human arachidonate 12S-lipoxygenase (ALOX12): Round 2; conditions: purified 12hLO, xylenol orange hydroperoxide absorbance; activity change, negative = inhibition: at 108 µM (top of the series) unless noted
Method in brief: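 Hydroperoxide product was detected by ferrous iron/xylenol orange as the 573 to 405 nm absorbance ratio. Arachidonic acid at 40 uM (final) was turned over for 30 min at room temperature by 150 nM human 12hLO, pH 7.0 Hepes buffer, after 15 min compound preincubation.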
% is scaled to controls: 0 for no effect and ±100 for the full control effect; potency is read from the fitted curve at half-maximal effect.

Question: With `COCCSc1ccccc1C(=O)Nc1nnc(C)s1` as the compound, how does the Potency read?
Answer: active: 11.2 µM

Question: With `C=CCN(Cc1ccc(F)cc1)C(=O)C(C)Oc1ccccc1OC` (centres undefined) as the compound, how does the “activity change, negative = inhibition” value read?
Answer: inactive: 13.4%

Question: `CCCS(=O)(=O)N1CCCC(Cc2noc(-c3ccncc3)n2)C1` (centres undefined) was tested. Which “activity change, negative = inhibition” value did it give?
Answer: inactive: 23.5%

Question: For `O=C1Nc2ccccc2CC12CCCN(CC1CC1)C2` (centres undefined), which activity change, negative = inhibition is on record?
Answer: inactive: 3.11% [at 12.5 µM]

Question: With `COc1cc(O)c(C(CCN2CCN(c3ccccc3)CC2)c2ccc(N(C)C)cc2)c(OC)c1` (centres undefined) as the compound, how does the Potency read?
Answer: inconclusive: 50.1 µM [inhibitor, partial curve, poor fit]

Question: `O=C(Nc1ccc(Cl)cc1)c1nc2c(o1)CCN(CC1CCCC1)CC2` was tested. Which Potency did it give?
Answer: inconclusive: 31.6 µM [inhibitor, partial curve, poor fit]

Question: With `COc1ccc(-c2nc(CSc3nc4c(=O)[nH]cnc4n3C)c(C)o2)cc1OC` as the compound, how does the “activity change, negative = inhibition” value read?
Answer: inactive: 8.15%

Question: `CC12CCC(C(=O)N(CSC(=S)N/N=C\c3ccccc3Cl)C1=O)C2(C)C` (centres undefined) was tested. Which Potency did it give?
Answer: inconclusive: 31.6 µM [inhibitor, partial curve, poor fit]

Question: With `Cc1ccc(N/N=C/C(Br)=C/c2ccccc2)cc1Cl` as the compound, how does the Potency read?
Answer: inconclusive: 8.91 µM [inhibitor, full curve, poor fit]

Question: Which Potency does the source give for `O=C(c1ccc(F)cc1)N1CCCC(c2nc(-c3cccs3)no2)C1` (centres undefined) here?
Answer: inconclusive: 0.282 µM [inhibitor, full curve, poor fit]

Question: Which Potency does the source give for `O=C1COCCOCCOCC(=O)NCCN1` here?
Answer: inconclusive: 141 µM [inhibitor, partial curve, poor fit]

Question: How did the Potency turn out when `CC(O)CC(C(=O)NNc1ccccc1)C(=O)NNc1ccccc1` (centres undefined) was run?
Answer: inconclusive: 44.7 µM [inhibitor, partial curve, poor fit]

Question: For `Cc1ccc(S(=O)(=O)N2CCCC(C(=O)Nc3ccnc4ccccc34)C2)cc1` (centres undefined), which Potency is on record?
Answer: inconclusive: 35.5 µM [inhibitor, partial curve, poor fit]

Question: How did the Potency turn out when `Cc1snc(SCC(=O)c2ccc(Cl)cc2)c1C#N` was run?
Answer: inconclusive: 2.82 µM [inhibitor, full curve, poor fit]

Question: `COc1ccc(-c2n[nH]c(=S)n2-c2ccc(Br)cc2)cc1OC` was tested. Which Potency did it give?
Answer: active: 15.8 µM

Question: How did the “activity change, negative = inhibition” value turn out when `COc1ccc(OC)c(N(CC(=O)NCCSc2ccccc2)S(C)(=O)=O)c1` was run?
Answer: inactive: 0%

Question: Which “activity change, negative = inhibition” value does the source give for `COc1ccc(N2CCCC2)c(NC(=O)c2ccc([N+](=O)[O-])o2)c1` here?
Answer: inactive: -21.1%

Question: How did the Potency turn out when `O=C(Cc1cccn1-c1cccc(Cl)c1)NCc1cccs1` was run?
Answer: inconclusive: 2.82 µM [inhibitor, full curve, poor fit]

Question: How did the Potency turn out when `Clc1cccc(-c2ccc(C=Nc3ccc(N4CCOCC4)cc3)o2)c1Cl` was run?
Answer: inconclusive: 50.1 µM [inhibitor, partial curve, poor fit]
